Measured values published in patent US20190316124A1.
These are yes or no findings as the source states them, for the method shown. Binding seen in cells or lysates may run through a third protein. Some entries that bind do so weakly or less than the wild type.

By UniProt entry, the sequences of proteins in these tests, tags left out. Residues count along the entry.
UniProt P07356, residues 2-339: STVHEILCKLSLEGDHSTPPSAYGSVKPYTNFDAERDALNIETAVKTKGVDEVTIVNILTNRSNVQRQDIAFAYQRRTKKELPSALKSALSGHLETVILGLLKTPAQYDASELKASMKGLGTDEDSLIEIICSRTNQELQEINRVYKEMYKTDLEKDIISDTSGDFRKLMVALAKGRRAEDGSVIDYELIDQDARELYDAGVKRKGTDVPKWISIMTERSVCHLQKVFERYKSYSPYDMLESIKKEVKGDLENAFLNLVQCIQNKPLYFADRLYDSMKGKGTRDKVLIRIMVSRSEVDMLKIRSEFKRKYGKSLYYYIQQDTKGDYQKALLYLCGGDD

T1: Semaphorin 3D (Sema3D), endogenous in mouse KPC pancreatic ductal adenocarcinoma cells (mouse) (UniProt Q8BH34)
T1 sequence (looked up): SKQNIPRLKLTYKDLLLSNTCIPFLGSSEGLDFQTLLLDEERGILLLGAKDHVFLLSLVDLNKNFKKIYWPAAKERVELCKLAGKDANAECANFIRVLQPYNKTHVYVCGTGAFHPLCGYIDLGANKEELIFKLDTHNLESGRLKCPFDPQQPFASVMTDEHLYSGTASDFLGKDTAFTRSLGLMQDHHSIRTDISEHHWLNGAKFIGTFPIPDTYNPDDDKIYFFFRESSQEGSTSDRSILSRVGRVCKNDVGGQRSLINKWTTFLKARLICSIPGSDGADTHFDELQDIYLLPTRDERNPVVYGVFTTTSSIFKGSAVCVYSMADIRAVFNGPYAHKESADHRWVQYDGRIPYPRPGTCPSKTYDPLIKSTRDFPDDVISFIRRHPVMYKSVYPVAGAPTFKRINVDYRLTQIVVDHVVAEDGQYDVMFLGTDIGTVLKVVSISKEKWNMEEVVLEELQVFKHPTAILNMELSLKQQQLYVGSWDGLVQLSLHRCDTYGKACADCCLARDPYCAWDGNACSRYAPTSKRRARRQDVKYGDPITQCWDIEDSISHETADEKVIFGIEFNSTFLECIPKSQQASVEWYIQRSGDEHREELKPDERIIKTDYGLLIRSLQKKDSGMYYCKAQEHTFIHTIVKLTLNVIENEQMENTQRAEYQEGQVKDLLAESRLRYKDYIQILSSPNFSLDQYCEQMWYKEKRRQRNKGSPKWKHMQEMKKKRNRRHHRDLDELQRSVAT


Tests used:
[1] = target: T1, Semaphorin 3D (Sema3D), endogenous in mouse KPC pancreatic ductal adenocarcinoma cells (mouse); assay: coimmunoprecipitation with cross-linked AnxA2 antibodies from KPC cell lysate, Western blot
[2] = target: neuropilin 1 (NP-1), endogenous in mouse KPC PDA cells (mouse) (UniProt P97333); assay: coimmunoprecipitation with anti-Sema3D antibodies from KPC cell lysate, Western blot
[3] = target: neuropilin 1 (NP-1), endogenous in mouse KPC PDA cells (mouse) (UniProt P97333); assay: coimmunoprecipitation from KPC cell lysate, Western blot (FIG. 14)

Row | binding [1] | binding [2] | binding [3] | Molecule
1 | binds |  |  | annexin A2 (AnxA2), endogenous in mouse KPC pancreatic ductal adenocarcinoma cells (from UniProt P07356 2-339)
2 |  | binds | binds | Semaphorin 3D (Sema3D), endogenous in mouse KPC pancreatic ductal adenocarcinoma cells (ligand, UniProt Q8BH34 38-777, looked up) SKQNIPRLKLTYKDLLLSNTCIPFLGSSEGLDFQTLLLDEERGILLLGAKDHVFLLSLVDLNKNFKKIYWPAAKERVELCKLAGKDANAECANFIRVLQPYNKTHVYVCGTGAFHPLCGYIDLGANKEELIFKLDTHNLESGRLKCPFDPQQPFASVMTDEHLYSGTASDFLGKDTAFTRSLGLMQDHHSIRTDISEHHWLNGAKFIGTFPIPDTYNPDDDKIYFFFRESSQEGSTSDRSILSRVGRVCKNDVGGQRSLINKWTTFLKARLICSIPGSDGADTHFDELQDIYLLPTRDERNPVVYGVFTTTSSIFKGSAVCVYSMADIRAVFNGPYAHKESADHRWVQYDGRIPYPRPGTCPSKTYDPLIKSTRDFPDDVISFIRRHPVMYKSVYPVAGAPTFKRINVDYRLTQIVVDHVVAEDGQYDVMFLGTDIGTVLKVVSISKEKWNMEEVVLEELQVFKHPTAILNMELSLKQQQLYVGSWDGLVQLSLHRCDTYGKACADCCLARDPYCAWDGNACSRYAPTSKRRARRQDVKYGDPITQCWDIEDSISHETADEKVIFGIEFNSTFLECIPKSQQASVEWYIQRSGDEHREELKPDERIIKTDYGLLIRSLQKKDSGMYYCKAQEHTFIHTIVKLTLNVIENEQMENTQRAEYQEGQVKDLLAESRLRYKDYIQILSSPNFSLDQYCEQMWYKEKRRQRNKGSPKWKHMQEMKKKRNRRHHRDLDELQRSVAT
